# In PubChem BioAssay AID540276 (National Center for Advancing Translational Sciences (NCATS), 2011):
# The whole screen tested about 300,000 compounds, of which about 5,400 (1.8%) were called active. The shares of active, inactive and inconclusive entries below differ from those in the screen. Calls come from the whole dose curve; tested in HEK293 cells. A potency beside an inconclusive call is a rough fit, not a confirmed value.
# Assay: qHTS for inhibitors of binding or entry into cells for Marburg Virus
# Details: Marburg virus pseudotyped entry inhibition, cell reporter; activity change, negative = inhibition: at 37.8 µM (top of the series) unless noted
# % is set by controls: 0 for no effect and ±100 for the full control effect; potency is the fitted concentration of half-maximal effect.
SMILES,Potency,"activity change, negative = inhibition"
Cc1ccc2nc3c(cc(C(=O)NCC4CCCO4)c(=N)n3C3CCCC3)c(=O)n2c1 (configuration not stated),"inconclusive: 22.4 µM [inhibitor, single point]",–
Cc1ccc(C)c(NC(=S)NNC(=O)c2csc3c2CCCC3)c1,–,inactive: -18.5%
COc1ccc(Cl)cc1C(=O)C1CCCN(CCO)C1 (configuration not stated),"inconclusive: 35.5 µM [inhibitor, single point]",–
COc1ccc(CCNC(=O)CSc2nc(-c3ccc(OC)c(OC)c3)ccc2C#N)cc1,"inconclusive: 0.447 µM [inhibitor, full curve, poor fit]",–
COc1cc(OC)c(OC)cc1/C=C1/C(=O)NC(=O)N(Cc2ccccc2)C1=O,"inconclusive: 5.62 µM [activator, full curve, poor fit]",–
CN(Cc1ccccc1)C(=O)c1oc(=O)c2ccccc2c1-c1ccccc1,–,inactive: 0.0773%
CN1CCN(CCC(=O)N2c3ccccc3Sc3ccc(C(F)(F)F)cc32)CC1,"inconclusive: 32.6 µM [inhibitor, partial curve, poor fit]",–
COc1ccc(OC)c(CN2CCC(C(=O)N3CCOCC3)CC2)c1,"inconclusive: 14.1 µM [inhibitor, single point]",–
CC1CCc2c(nc3ncnn3c2NCCc2ccccc2F)C1 (configuration not stated),"inconclusive: 5.01 µM [inhibitor, full curve, poor fit]",–
CCCCCCOc1ccc(CN2CCN(CCO)CC2)cc1,"inconclusive: 2.31 µM [activator, partial curve, poor fit]",–
CCC(=O)NC(=S)Nc1ccc(NC(=O)c2ccco2)c(OC)c1,–,inactive: -25%
CN1CCN(c2ccc(NC(=O)c3ccc(C(F)(F)F)cc3)cn2)CC1,"inconclusive: 14.1 µM [inhibitor, single point]",–
CN(C)c1ccc(C(=O)OCC(=O)c2cccs2)cc1,"inconclusive: 1.12 µM [activator, single point]",–
CCN1CCN(Cc2c(O)ccc3oc(C)c(C(=O)Nc4cccc(Cl)c4C)c23)CC1,"inconclusive: 5.62 µM [inhibitor, single point]",–
COc1cccc(C(=O)N2[C@@H](C(C)C)COc3cc(Br)ccc3S2(=O)=O)c1,"inconclusive: 0.353 µM [inhibitor, full curve, poor fit]",–
Cc1ccc(S(=O)(=O)N(C)c2ccc(C)c([N+](=O)[O-])c2)cc1,"inconclusive: 2.82 µM [inhibitor, partial curve, poor fit]",–
COCC(C)n1c(SCc2ccc(OC)c(F)c2)nc2ccccc2c1=O (configuration not stated),"inconclusive: 10 µM [inhibitor, partial curve, poor fit]",–

# 3 entries out of the list, sorted by count of non-hydrogen atoms, largest number first:
SMILES,Potency,"activity change, negative = inhibition"
Cc1ccc(C)c(NC(=S)NNC(=O)c2csc3c2CCCC3)c1,–,inactive: -18.5%
CCCCCCOc1ccc(CN2CCN(CCO)CC2)cc1,"inconclusive: 2.31 µM [activator, partial curve, poor fit]",–
Cc1ccc(S(=O)(=O)N(C)c2ccc(C)c([N+](=O)[O-])c2)cc1,"inconclusive: 2.82 µM [inhibitor, partial curve, poor fit]",–
